The shares of active, inactive and inconclusive entries below differ from those in the screen. A potency beside an inconclusive call is a rough fit, not a confirmed value. Calls of active or inactive are those of the source. Calls follow the shape of the dose curve; as a rule, active = well fitted curve in the direction sought with a large enough effect; inconclusive = small, poorly fitted or top-dose-only effect, or another doubt; inactive = no such curve, though single readings can be large or run the other way.
Assay: Inhibitors of DNA Polymerase Beta: Hit Validation in HIV-RT Assay
Settings: HIV-1 RT polymerase activity, counter-screen; series mostly up to 57.1 µM
Text: The base excision repair system in human cells is a target for therapeutic modulation of the response to irradiation treatment and DNA-damaging drugs. A key enzyme in this system is the bi-functional DNA polymerase known as DNA polymerase beta (pol b). […] Using an integrated approach involving discovery of small molecule probes for pol b via qHTS and validation by crystallography and kinetics along with cell-based validation experiments, we will test the hypothesis that base excision repair can be strategically modulated in human cells by targeting pol b. Thus, we anticipate the pol b-specific probes emerging from this research will serve as starting points in the development of clinical agents for use in down regulation of DNA base excision repair during therapeutic interventions against cancer.
After the completion of the qHTS against the Molecular Libraries Small Molecular Repository (MLSMR), cherry picked compounds were confirmed in the primary qHTS pol beta assay and further characterized in several follow-up assays. To avoid compound promiscuity, we selected a completely unrelated viral polymerase to polymerase beta, HIV reverse transcriptase(RT) as a counter screen. There are distinct differences between the two polymerases, such as source of host and HIV RT is responsible for transcribing the virus' single stranded RNA into double-stranded DNA after entry into its host cell. […] To us, a favorable outcome in this assay is inactivity.
NIH Chemical Genomics Center [NCGC]
NIH Molecular Libraries Probe Centers Network [MLPCN]
Assay Submitter (PI): Samuel Wilson, National Institute of Environmental Health Sciences (NIEHS), NIH
A stepwise description of the 1536-well assay is shown in next Table. Three microliters of reagents (buffer in column 3 and 4 as negative control and 10 nM Pol beta in columns 1, 2, and 5-48) was dispensed into 1,536-well black solid-bottomed plate. Compounds (23 nL) were transferred via Kalypsys pin tool equipped with 1536-pin array (10 nL slotted pins, V&P Scientific, San Diego, CA). The plates were incubated for 15 min at room temperature, and 1 uL substrate (50 nM final concentration) were added to start the reaction and immediately read at 0 min read on Viewlux reader. The plate were further incubated for 10 min at room temperature, and then read on Viewlux again. Throughout the screen, reagent bottle and all liquid lines were chilled and made light-tight to minimize reagent degradation. All screening operations were performed on a fully integrated robotic system (Kalypsys, San Diego, CA) containing one RX-130 and two RX-90 anthropomorphic robotic arms (Staubli, Duncan, SC). Library plates were screened starting from the lowest and proceeding to the highest concentration, and a double-dipping step of the highest concentration was required to access higher concentrations of compounds. Vehicle-only plates, with DMSO being pin-transferred to the entire column 5-48 compound area, were inserted uniformly at the beginning and the end of each library in order to monitor for and record any shifts in the background, which can be affected by reagent dispensers or loss in enzyme activity overtime. Screening data were corrected, normalized, and concentration-effect relationships were derived by using publicly-available curve fitting algorithms developed in-house (http://ncgc.nih.gov/pub/openhts). A four parameter Hill equation was fitted to the concentration-response data by minimizing the residual error between the modeled and observed responses.

Compound	Potency
COc1ccc(NC(=O)Cn2ncc(Cl)c(Cl)c2=O)cc1S(=O)(=O)N1CCOCC1	inconclusive: 28.2 µM [inhibitor, partial curve]
O=[N+]([O-])c1cc(CN2CCCC2)c2cccnc2c1O	inactive
Cc1cc(SCC(=O)c2ccc(O)c(O)c2)nc2ccccc12	inconclusive: 39.8 µM [inhibitor, single point]
O=C(Nc1ccc2c(c1)OCO2)C1CCN(C(=O)CSc2ncnc3ccccc23)CC1	inactive
CCn1c(CSc2nc3ccccc3s2)nnc1SCC(=O)c1ccc(O)c(O)c1	inconclusive: 15.8 µM [inhibitor, partial curve]
COc1cc(/C=C(/C#N)c2nc3ccccc3[nH]2)ccc1Oc1ncccc1[N+](=O)[O-]	inactive
O=C(N/N=C/c1ccco1)c1cccc(N2Cc3ccccc3C2)c1	inactive
O=C(Cn1cnc2scc(-c3cccc([N+](=O)[O-])c3)c2c1=O)NCc1ccco1	inconclusive: 31.6 µM [inhibitor, partial curve]
O=C(CSc1n[nH]c(-c2ccccc2)n1)c1ccc(O)c(O)c1	inconclusive: 25.1 µM [inhibitor, partial curve]
O=C(COC(=O)C1CC(=O)N(Cc2ccco2)C1)c1ccc(OC(=O)c2ccco2)cc1 (stereo not given)	inconclusive: 28.2 µM [inhibitor, partial curve]
Cc1cc(=O)[nH]c(SCC(=O)c2ccc(O)c(O)c2)n1	inconclusive: 20 µM [inhibitor, partial curve]
CCc1ccc(-n2cccc2/C=C2/C(=N)N3C(=NC2=O)SN=C3S(C)(=O)=O)cc1	inconclusive: 28.2 µM [inhibitor, partial curve, poor fit]
CC(C)Cn1c(N)c(C(=O)COC(=O)c2cc(-c3ccco3)nc3ccccc23)c(=O)n(C)c1=O	inactive
O=C(OCC(=O)N1CCN(C(=O)c2ccco2)CC1)c1cc(-c2ccco2)nc2ccccc12	inconclusive: 25.1 µM [inhibitor, partial curve]
O=C(O)c1ccc2c(c1)C(=O)N(c1cccc(-c3nc4ccccc4s3)c1)C2=O	inactive
Nc1c(C(=O)NC2CC2)sc2nc3c(c(-c4ccco4)c12)CC/C3=C/c1ccco1	inconclusive: 25.1 µM [inhibitor, partial curve]
O=C(CN1CCN(S(=O)(=O)c2cc(Cl)ccc2Cl)CC1)c1ccc(O)c(O)c1	inconclusive: 25.1 µM [inhibitor, partial curve]
CCN(CC)c1ccc(NC(=O)CCS(=O)(=O)c2ccc(Br)cc2)c(C)c1	inconclusive: 25.1 µM [inhibitor, partial curve]
Cc1nn(-c2ccccc2)c2nc(-c3ccco3)cc(C(=O)O)c12	inconclusive: 28.2 µM [inhibitor, partial curve]
O=C(COC(=O)c1ccccc1Oc1ccccc1)NCc1ccco1	inconclusive: 20 µM [inhibitor, partial curve]
Cc1c(O)cc2c(c1O)C(=O)CC(c1ccc(O)cc1)O2 (stereo not given)	inactive
CC(=O)Nc1ccc(C(=O)Nc2cccc(-c3cnc4ccccc4n3)c2)cc1	inactive
CNC(=O)COC(=O)c1cc(-c2ccco2)nc2ccccc12	inconclusive: 31.6 µM [inhibitor, partial curve]
COc1ccc(NC(=O)c2cc(-c3ccco3)nc3ccccc23)cc1S(=O)(=O)N1CCOCC1	inactive
O=[N+]([O-])c1cc(CN2CCOCC2)c2cccnc2c1O	inactive
C=CCn1c(SCC(=O)Nc2ccc(-c3nc4ccc(C)cc4s3)cc2)nnc1-c1ccccc1	inactive
O=c1c2c3c(sc2[nH]c(=S)n1Cc1ccco1)CCC3	inactive
CC1CCC2(CC1)NC(=O)N(CC(=O)Nc1sc3c(c1C(N)=O)CCC3)C2=O (stereo not given)	inconclusive: 28.2 µM [inhibitor, partial curve]
CCOc1cc(/C=C(\C#N)C(=O)Nc2cccc(C(=O)O)c2)ccc1OCc1ccc(Br)cc1	inactive
CCn1c(SCC(=O)c2ccc(O)c(O)c2)nnc1-c1ccccc1OC	inconclusive: 11.2 µM [inhibitor, partial curve]

2 records picked at random from those above, as already listed:
Compound	Potency
Cc1c(O)cc2c(c1O)C(=O)CC(c1ccc(O)cc1)O2 (stereo not given)	inactive
COc1ccc(NC(=O)c2cc(-c3ccco3)nc3ccccc23)cc1S(=O)(=O)N1CCOCC1	inactive
